The list shows a part of the results. These are further read-outs of the screen, such as a control signal, another cell line or another target. No call is given for them.
Assay: Assay for Inhibitors of Influenza NS1 Protein Function: Influenza virus replication assay in MDCK cells infected with virus A/PR/8/34
Conditions: MDCK infected influenza A/PR/8/34, virus titer TCID50; measured here: MDCK cell viability; at 5 µM; stronger effect = higher value
Text: NIH Chemical Genomics Center [NCGC]
NIH Molecular Libraries Probe Centers Network [MLPCN]
Assay Submitter (PI): Daniel Engel
Influenza is a world-wide public health problem and emerging forms of the virus have the potential to cause a pandemic of equal or greater magnitude to the outbreaks recorded in 1918, 1957 or 1968. Vaccine development is proceeding and there also exist two classes of anti-influenza compounds. However these therapeutic modalities are neither fully effective nor widely enough available to fulfill global needs. In addition their potential usefulness against newly emergent strains is not known. Efforts are needed to develop novel agents against influenza virus, including broad-spectrum agents. Identification of small molecules that inhibit NS1 function either directly or by interfering with specific cellular pathways may be a key to increasing our defense against the virus.
We have miniaturized and optimized a cell based assay in which NS1 from influenza A is expressed in the budding yeast S. cerevisiae. NS1 is a multi-functional protein that counters the host innate immune response and facilitates viral versus cellular gene expression. Expression of NS1 causes a pronounced slow growth phenotype in yeast due to its intrinsic molecular activities. Small molecules that suppress the slow growth phenotype can be identified by a straightforward growth recovery assay using optical density (OD) as the measurement. The same yeast strain not expressing NS1 was used as positive control in the yeast growth recovery assay. The present experiment attempted to confirm the activity of compounds observed in the primary screen.
This assay confirms the activity of compounds from the primary screen by measuring their affect on viral replication.
Protocol details are given in Basu et al. J. Vir. 83(4):1881-1891 2009. […] All media and sera were from Invitrogen. […] Confluent cell monolayers were infected at a multiplicity of infection (MOI) of 0.1 for 48 h in the presence or absence of 5uM compound. Compounds were added at the beginning of infection and were present throughout the infection. After 48 h virus titers were determined by standard TCID50 analysis.
With `O=C(COC(=O)c1ccc[nH]c1=O)Nc1ccc(S(=O)(=O)N2CCCC2)cc1` the viability was 105%.
With `COc1cc(NC(=O)CSc2nc3ccccc3n2-c2ccccc2)c(C)cc1[N+](=O)[O-]` the viability was 103%.
Work on `COc1cc(NC(=O)COC(=O)c2cc(S(=O)(=O)N3CCCCC3)ccc2Cl)c(C)cc1[N+](=O)[O-]` yielded a viability of 101%.
Compound `O=C(C[n+]1cccc(C(=O)Nc2ccccc2)c1)c1ccc([N+](=O)[O-])cc1` has a viability of 103%.
`O=C(CSc1nc(O)c(Cc2ccccc2)c(=O)[nH]1)N1CCOCC1` showed a viability of 103%.
Compound `COc1ccc(N2C(=O)N3[C@H](c4cccc(C)c4)[C@@H]4C(=O)N(Cc5ccccc5)C(=O)[C@@H]4[C@]3(Cc3ccccc3)C2=O)cc1` has a viability of 102%.
Work on `Cc1c(Cl)cccc1NC(=O)CSc1nncn1-c1ccccn1` yielded a viability of 97.3%.
`C[C@@H](C(=O)Nc1ccc2ccccc2c1)[C@@H]1C[C@@]1(C)[C@@H](NC(=O)c1ccccc1)c1ccccc1` gave a viability of 102%.
In the case of `CCc1ccc(NC(=O)CNC(=O)c2cn(-c3ccccc3OC)c(=O)c3ccccc23)cc1`, the viability is reported as 98.9%.
With `Cc1ccc(-c2nnc(NCc3nc4ccccc4[nH]3)c3ccccc23)cc1S(=O)(=O)N(C)C` the viability was 103%.
In the case of `Cc1ccc(N(CC(=O)N/N=C/c2ccco2)S(=O)(=O)c2ccccc2)cc1`, the viability is reported as 99.7%.
Compound `O=C(NCc1cc(C(F)(F)F)cc(C(F)(F)F)c1)C12CN(Cc3ccccc3)CC1C(c1cccc([N+](=O)[O-])c1)=NO2` (stereo not given) has a viability of 94.6%.
`Cc1ccc(-c2csc(N3CCC(NS(=O)(=O)c4ccc5c(c4)OCCO5)CC3)n2)cc1` gave a viability of 106%.
With `Cc1ccc(S(=O)(=O)Nc2ccccc2-c2ccccc2NS(=O)(=O)c2ccc(C)cc2)cc1` the viability was 99.8%.
Compound `O=C(Nc1ccc2c(c1)CCC2)c1cc(S(=O)(=O)Nc2ccc(F)cc2)c(Cl)cc1Cl` has a viability of 101%.
Work on `COc1cc(/C=N/n2c(-c3ccc4c(c3)NC(=O)CO4)csc2=Nc2cccc(C)c2)ccc1O` yielded a viability of 99.2%.
In the case of `O=C(Nc1ccc(Oc2ccc(NC(=O)c3ccco3)c(NC(=O)c3ccco3)c2)cc1)c1ccco1`, the viability is reported as 103%.
For `CCOC(=O)c1ccc(NC(=O)CSc2nc(C)cc(=O)[nH]2)cc1`, the viability was 96.7%.
With `COc1cc(/C=N/NC(=O)c2ccc(CSc3nc4ccccc4[nH]3)cc2)cc(OC)c1OC` the viability was 103%.
`CCCC12C(=O)C(C)(C(c3ccccc3)=C1c1ccccc1)C1C(=O)N(c3ccc(C)cc3)C(=O)C12` (stereo not given) gave a viability of 102%.
`COCCn1nnnc1C(c1cc2ccc(OC)cc2[nH]c1=O)N1CCN(C2CCCCC2)CC1` (stereo not given) gave a viability of 95.9%.
In the case of `CCOc1cc(/C=N/NC(=O)COc2ccc(Cl)cc2)ccc1OS(=O)(=O)c1ccccc1`, the viability is reported as 99.2%.
`O=C(NCc1cccs1)C1CCCN1C(=O)Nc1ccccc1Cl` (stereo not given) showed a viability of 99.7%.
Compound `CCOc1cc(-c2c(C#N)c(=O)[nH]c3c2c(C)nn3-c2ccc(F)cc2)ccc1O` has a viability of 85.4%.
`CCOC(=O)N1CCC(NC(=O)c2ccc3c(c2)sc2nc(-c4ccccc4)cn23)CC1` showed a viability of 102%.
In the case of `N/N=c1\sc2ccccc2n1-c1ccccc1`, the viability is reported as 93.4%.
Compound `C[C@@H](C(=O)Nc1ccc2ccccc2c1)[C@H]1C[C@]1(C)[C@H](NC(=O)c1cccnc1)c1ccccc1` has a viability of 98.4%.
For `CCc1cc(=O)oc2cc(C)cc(OCC(=O)N[C@@H](CSCc3ccccc3)C(=O)O)c12`, the viability was 97.8%.
`COC(=O)c1c(NC(=S)Nc2cc(OC)c(Cl)cc2OC)sc2c1CCCCC2` showed a viability of 102%.
With `O=C(NCc1ccc2[nH]c3c(c2c1)CCCC3)c1ccc(S(=O)(=O)N2CCCC2)cc1` the viability was 89.4%.
`CC12CCC(C(=O)N(CSC(=S)N/N=C\c3ccccc3Cl)C1=O)C2(C)C` (stereo not given) showed a viability of 94.5%.
`COc1ccc(-c2csc(Nc3ccc(S(=O)(=O)Nc4cc(OC)nc(OC)n4)cc3)n2)cc1` gave a viability of 102%.
Work on `CCOCCCNS(=O)(=O)c1ccc(NC(=O)Cc2c(F)cccc2Cl)cc1` yielded a viability of 99.3%.
For `O=C(CSc1nc2ccccc2c(=O)n1-c1ccccc1Cl)Nc1cccc(S(=O)(=O)N2CCOCC2)c1`, the viability was 90.5%.
In the case of `NC(=O)[C@H]1CC2(CC(c3cccc(NC(=O)CC(c4ccccc4)c4ccccc4)c3)=NO2)CN1C(=O)CC(c1ccccc1)c1ccccc1` (stereo not given in full), the viability is reported as 95.7%.
Compound `CC(C)(C)NC(=O)NC(=O)CN1CCN(c2cccc(Cl)c2)CC1` has a viability of 99.2%.
For `Cc1ccc(C(=O)N/N=C/c2cc(C)n(-c3ccc(Br)cc3)c2C)cc1[N+](=O)[O-]`, the viability was 104%.
In the case of `Cc1ccc(C(=O)Nc2ccccc2C(=O)O)cc1S(=O)(=O)NC1CCCCC1`, the viability is reported as 99.5%.
In the case of `CCc1ccccc1OCCCOc1ccc(OC)cc1`, the viability is reported as 96.9%.
`COc1ccc(-n2c(SCC(=O)N3CCCCC3)nc(O)cc2=O)cc1` showed a viability of 96.4%.

— PubChem BioAssay AID504647 (National Center for Advancing Translational Sciences (NCATS), 2011)
